From PMC10620822 come the findings set out here.

No constants are given. Whether binding was seen depends on the method and setting. In cells and extracts the contact can be indirect. These calls come from enrichment with a bait or labelling near it, and not all partners need be listed.

The target in this assay is Flag-CENPA (human) (UniProt P49450). Put plainly: affinity purification with mass spectrometry; Flag-CENPA expressed in HEK293T cells, co-IP to enrich interacting proteins, silver staining, mass spectrometry.

For “YY1 (endogenous, HEK293T) (from UniProt P25490 1-414)”, the binding entry is “binds”.
